Test results published in US20090232838A1 (priority 2005, published 2009).
Bridges are numbered along the chain shown (N, C = ends). [ ]: non-standard residue; d: D form. dPhe(4-Br) = N[C@H](Cc1ccc(Br)cc1)C(=O)O; 1Nal = N[C@@H](Cc1cccc2ccccc12)C(=O)O; 2Nal = N[C@@H](Cc1ccc2ccccc2c1)C(=O)O; d2Nal = N[C@H](Cc1ccc2ccccc2c1)C(=O)O; Aib = CC(C)(N)C(=O)O

Assay: general procedure: Fmoc solid-phase peptide synthesis; Rink Amide MBHA resin (Novabiochem, 0.66 mmol/g); Wang resin if C-terminal OH; HBTU/HOBT in DMF
Settings: whole synthesis, analytical HPLC, scale of the general procedure 1.00 mmol, 0.3 mmol

Substance | purity (crude or final not stated) [%]
Ac-CEH[d2Nal]RWACPPKD-NH2 (disulfide 1-8) | 99.1
Ac-CEH[d2Nal]R[1Nal]ACPPKD-NH2 (disulfide 1-8) | 99.9
Ac-CEH[d2Nal]R[2Nal]ACPPKD-NH2 (disulfide 1-8) | 98.9
Ac-CEH[d2Nal]R[2Nal][Aib]CPPKD-NH2 (disulfide 1-8) | 94.9
Ac-CEH[dPhe(4-Br)]RWGCPPKD-NH2 (disulfide 1-8) | 99.9
Ac-Nle-c(Asp-His-D-2-Nal-Arg-Trp-Lys)-Doc-Doc-Tyr-Gly-Arg-Lys-Lys-Arg-Arg-Gln-Arg-Arg-Arg-NH2 | 97.1
Ac-Nle-c(Asp-His-D-2-Nal-Arg-Trp-Lys)-Pro-Pro-Lys-Asp-Doc-Tyr-Gly-Arg-Lys-Lys-Arg-Arg-Gln-Arg-Arg-Arg-NH2 | 99.9
Ac-Nle-c(Asp-His-D-2-Nal-Arg-Trp-Lys)-Pro-Pro-Lys-Asp-Tyr-Gly-Arg-Lys-Lys-Arg-Arg-Gln-Arg-Arg-Arg-NH2 | 99.9
Ac-Nle-c(Asp-His-D-2-Nal-Arg-Trp-Lys)-β-Ala-Tyr-Gly-Arg-Lys-Lys-Arg-Arg-Gln-Arg-Arg-Arg-NH2 | 93.8
Ac-Nle-c(Asp-His-D-2-Nal-Arg-Trp-Lys)-β-Ala-β-Ala-Tyr-Gly-Arg-Lys-Lys-Arg-Arg-Gln-Arg-Arg-Arg-NH2 | 99.9
Ac-Nle-c(Cys-D-Ala-His-D-Phe-Arg-Trp-Cys)-(Doc)2-Tyr-Gly-Arg-Lys-Lys-Arg-Arg-Gln-Arg-Arg-Arg-NH2 | 99.9
Ac-Nle-c(Cys-D-Ala-His-D-Phe-Arg-Trp-Cys)-Doc-Tyr-Gly-Arg-Lys-Lys-Arg-Arg-Gln-Arg-Arg-Arg-NH2 | 99.9
Ac-Nle-c(Cys-D-Ala-His-D-Phe-Arg-Trp-Cys)-β-Ala-Arg-Arg-Arg-Arg-Arg-Gln-Arg-Arg-Arg-NH2 | 99.9
Ac-Nle-c(Cys-D-Ala-His-D-Phe-Arg-Trp-Cys)-β-Ala-Arg-Arg-Lys-Arg-Arg-Gln-Arg-Arg-Arg-NH2 | 99.9
Ac-Nle-c(Cys-D-Ala-His-D-Phe-Arg-Trp-Cys)-β-Ala-Arg-Lys-Arg-Arg-Arg-Gln-Arg-Arg-Arg-NH2 | 99.9
Ac-Nle-c(Cys-D-Ala-His-D-Phe-Arg-Trp-Cys)-β-Ala-Gly-Arg-Arg-Arg-Arg-Arg-Gln-Arg-Arg-Arg-Arg-NH2 | 99.9
Ac-Nle-c(Cys-D-Ala-His-D-Phe-Arg-Trp-Cys)-β-Ala-Gly-Arg-Arg-Arg-Arg-Arg-Gln-Arg-Arg-Arg-NH2 | 99.9
Ac-Nle-c(Cys-D-Ala-His-D-Phe-Arg-Trp-Cys)-β-Ala-Gly-Arg-Arg-Lys-Arg-Arg-Gln-Arg-Arg-Arg-NH2 | 99.9
Ac-Nle-c(Cys-D-Ala-His-D-Phe-Arg-Trp-Cys)-β-Ala-Gly-Arg-Lys-Arg-Arg-Arg-Gln-Arg-Arg-Arg-NH2 | 99.9
Ac-Nle-c(Cys-D-Ala-His-D-Phe-Arg-Trp-Cys)-β-Ala-Tyr-Gly-Arg-Arg-Arg-Arg-Arg-Gln-Arg-Arg-Arg-NH2 | 99.0
Ac-Nle-c(Cys-D-Ala-His-D-Phe-Arg-Trp-Cys)-β-Ala-Tyr-Gly-Arg-Arg-Lys-Arg-Arg-Gln-Arg-Arg-Arg-NH2 | 99.9
Ac-Nle-c(Cys-D-Ala-His-D-Phe-Arg-Trp-Cys)-β-Ala-Tyr-Gly-Arg-Lys-Arg-Arg-Arg-Gln-Arg-Arg-Arg-NH2 | 98.8
Ac-Nle-c(Cys-D-Ala-His-D-Phe-Arg-Trp-Cys)-β-Ala-Tyr-Gly-Arg-Lys-Lys-Arg-Gln-Arg-Arg-Arg-Arg-NH2 | 99.9
Ac-c(Cys-Glu-His-D-2-Nal-Arg-1-Nal-Ala-Cys)-Pro-Pro-Lys-Asp-β-Ala-Arg-Arg-Arg-Arg-Arg-Arg-Gln-Arg-Arg-Arg-NH2 | 99.9
Ac-c(Cys-Glu-His-D-2-Nal-Arg-1-Nal-Ala-Cys)-Pro-Pro-Lys-Asp-β-Ala-Arg-Arg-Arg-Arg-Arg-Gln-Arg-Arg-Arg-NH2 | 99.9
Ac-c(Cys-Glu-His-D-2-Nal-Arg-1-Nal-Ala-Cys)-Pro-Pro-Lys-Asp-β-Ala-Arg-Arg-Lys-Arg-Arg-Gln-Arg-Arg-Arg-NH2 | 99.9
Ac-c(Cys-Glu-His-D-2-Nal-Arg-1-Nal-Ala-Cys)-Pro-Pro-Lys-Asp-β-Ala-Arg-Lys-Arg-Arg-Arg-Gln-Arg-Arg-Arg-NH2 | 99.9

Substance | purity (crude or final not stated) [%]
Ac-c(Cys-Glu-His-D-2-Nal-Arg-1-Nal-Ala-Cys)-Pro-Pro-Lys-Asp-β-Ala-Tyr-Gly-Arg-Arg-Lys-Arg-Arg-Gln-Arg-Arg-Arg-NH2 | 99.9
Ac-c(Cys-Glu-His-D-2-Nal-Arg-1-Nal-Ala-Cys)-Pro-Pro-Lys-Asp-β-Ala-Tyr-Gly-Arg-Lys-Arg-Arg-Arg-Gln-Arg-Arg-Arg-NH2 | 99.9
Ac-c(Cys-Glu-His-D-2-Nal-Arg-1-Nal-Ala-Cys)-Pro-Pro-Lys-Asp-β-Ala-Tyr-Gly-Arg-Lys-Lys-Arg-Arg-Gln-Arg-Arg-Arg-NH2 | 99.0
Ac-c(Cys-Glu-His-D-2-Nal-Arg-2-Nal-Ala-Cys)-Pro-Pro-Lys-Asp-β-Ala-Arg-Arg-Arg-Arg-Arg-Arg-Gln-Arg-Arg-Arg-NH2 | 99.9
Ac-c(Cys-Glu-His-D-2-Nal-Arg-2-Nal-Ala-Cys)-Pro-Pro-Lys-Asp-β-Ala-Arg-Arg-Arg-Arg-Arg-Gln-Arg-Arg-Arg-NH2 | 99.9
Ac-c(Cys-Glu-His-D-2-Nal-Arg-2-Nal-Ala-Cys)-Pro-Pro-Lys-Asp-β-Ala-Arg-Arg-Lys-Arg-Arg-Gln-Arg-Arg-Arg-NH2 | 99.9
Ac-c(Cys-Glu-His-D-2-Nal-Arg-2-Nal-Ala-Cys)-Pro-Pro-Lys-Asp-β-Ala-Arg-Lys-Arg-Arg-Arg-Gln-Arg-Arg-Arg-NH2 | 99.2
Ac-c(Cys-Glu-His-D-2-Nal-Arg-2-Nal-Ala-Cys)-Pro-Pro-Lys-Asp-β-Ala-Gly-Arg-Arg-Lys-Arg-Arg-Gln-Arg-Arg-Arg-NH2 | 99.9
Ac-c(Cys-Glu-His-D-2-Nal-Arg-2-Nal-Ala-Cys)-Pro-Pro-Lys-Asp-β-Ala-Gly-Arg-Lys-Arg-Arg-Arg-Gln-Arg-Arg-Arg-NH2 | 99.9
Ac-c(Cys-Glu-His-D-2-Nal-Arg-2-Nal-Ala-Cys)-Pro-Pro-Lys-Asp-β-Ala-Tyr-Gly-Arg-Arg-Lys-Arg-Arg-Gln-Arg-Arg-Arg-NH2 | 99.9
Ac-c(Cys-Glu-His-D-2-Nal-Arg-2-Nal-Ala-Cys)-Pro-Pro-Lys-Asp-β-Ala-Tyr-Gly-Arg-Lys-Arg-Arg-Arg-Gln-Arg-Arg-Arg-NH2 | 99.45
Ac-c(Cys-Glu-His-D-2-Nal-Arg-Bal-Ala-Cys)-Pro-Pro-Arg-Asp-β-Ala-Arg-Arg-Arg-Arg-Arg-Arg-Gln-Arg-Arg-Arg-NH2 | 99.9
Ac-c(Cys-Glu-His-D-2-Nal-Arg-Bal-Ala-Cys)-Pro-Pro-Arg-Asp-β-Ala-Arg-Arg-Arg-Arg-Arg-Gln-Arg-Arg-Arg-NH2 | 99.1
Ac-c(Cys-Glu-His-D-2-Nal-Arg-Bal-Ala-Cys)-Pro-Pro-Lys-Asp-β-Ala-Arg-Arg-Arg-Arg-Arg-Arg-Gln-Arg-Arg-Arg-NH2 | 99.9
Ac-c(Cys-Glu-His-D-2-Nal-Arg-Bal-Ala-Cys)-Pro-Pro-Lys-Asp-β-Ala-Arg-Arg-Arg-Arg-Arg-Gln-Arg-Arg-Arg-NH2 | 99.9
Ac-c(Cys-Glu-His-D-2-Nal-Arg-Bal-Ala-Cys)-Pro-Pro-Lys-Asp-β-Ala-Arg-Arg-Lys-Arg-Arg-Gln-Arg-Arg-Arg-NH2 | 99.9
Ac-c(Cys-Glu-His-D-2-Nal-Arg-Bal-Ala-Cys)-Pro-Pro-Lys-Asp-β-Ala-Arg-Lys-Arg-Arg-Arg-Gln-Arg-Arg-Arg-NH2 | 99.9
Ac-c(Cys-Glu-His-D-2-Nal-Arg-Bal-Ala-Cys)-Pro-Pro-Lys-Asp-β-Ala-Gly-Arg-Arg-Arg-Arg-Arg-Gln-Arg-Arg-Arg-NH2 | 99.9
Ac-c(Cys-Glu-His-D-2-Nal-Arg-Bal-Ala-Cys)-Pro-Pro-Lys-Asp-β-Ala-Gly-Arg-Arg-Lys-Arg-Arg-Gln-Arg-Arg-Arg-NH2 | 99.9
Ac-c(Cys-Glu-His-D-2-Nal-Arg-Bal-Ala-Cys)-Pro-Pro-Lys-Asp-β-Ala-Gly-Arg-Lys-Arg-Arg-Arg-Gln-Arg-Arg-Arg-NH2 | 99.90
Ac-c(Cys-Glu-His-D-2-Nal-Arg-Bal-Ala-Cys)-Pro-Pro-Lys-Asp-β-Ala-Tyr-Aib-Arg-Lys-Lys-Arg-Arg-Gln-Arg-Arg-Arg-NH2 | 99.0
Ac-c(Cys-Glu-His-D-2-Nal-Arg-Bal-Ala-Cys)-Pro-Pro-Lys-Asp-β-Ala-Tyr-Gly-Arg-Arg-Lys-Arg-Arg-Gln-Arg-Arg-Arg-NH2 | 99.9
Ac-c(Cys-Glu-His-D-2-Nal-Arg-Bal-Ala-Cys)-Pro-Pro-Lys-Asp-β-Ala-Tyr-Gly-Arg-Lys-Arg-Arg-Arg-Gln-Arg-Arg-Arg-NH2 | 99.9
Ac-c(Cys-Glu-His-D-2-Nal-Arg-Bal-Ala-Cys)-Pro-Pro-Lys-Asp-β-Ala-Tyr-Gly-Arg-Lys-Lys-Arg-Arg-Gln-Arg-Arg-Arg-NH2 | 99.0
Ac-c(Cys-Glu-His-D-2-Nal-Arg-Trp-Ala-Cys)-Pro-Pro-Lys-Asp-β-Ala-Tyr-Gly-Arg-Gln-Lys-Lys-Arg-Arg-Arg-Arg-Arg-NH2 | 99.0
Ac-c(Cys-Glu-His-D-2-Nal-Arg-Trp-Ala-Cys)-Pro-Pro-Lys-Asp-β-Ala-Tyr-Gly-Arg-Lys-Gln-Lys-Arg-Arg-Arg-Arg-Arg-NH2 | 95.0
Ac-c(Cys-Glu-His-D-2-Nal-Arg-Trp-Ala-Cys)-Pro-Pro-Lys-Asp-β-Ala-Tyr-Gly-Arg-Lys-Lys-Arg-Arg-Arg-Arg-Arg-Gln-NH2 | 99.0
